According to article doi:10.1101/2022.04.10.487777:
Results are given in words; binding and its absence hold for the method and conditions named. Binding seen in cells or lysates may run through a third protein. A yes stands for co-enrichment or nearness to the bait. Other partners may have been found. A no says only that the protein was not detected with the bait. Tags and fused reporters may be left off the sequences shown. Values belong to the molecule of their own block, whether it stands above or below them.

By UniProt entry, the sequences of proteins in these tests, tags left out.
UniProt Q6A078: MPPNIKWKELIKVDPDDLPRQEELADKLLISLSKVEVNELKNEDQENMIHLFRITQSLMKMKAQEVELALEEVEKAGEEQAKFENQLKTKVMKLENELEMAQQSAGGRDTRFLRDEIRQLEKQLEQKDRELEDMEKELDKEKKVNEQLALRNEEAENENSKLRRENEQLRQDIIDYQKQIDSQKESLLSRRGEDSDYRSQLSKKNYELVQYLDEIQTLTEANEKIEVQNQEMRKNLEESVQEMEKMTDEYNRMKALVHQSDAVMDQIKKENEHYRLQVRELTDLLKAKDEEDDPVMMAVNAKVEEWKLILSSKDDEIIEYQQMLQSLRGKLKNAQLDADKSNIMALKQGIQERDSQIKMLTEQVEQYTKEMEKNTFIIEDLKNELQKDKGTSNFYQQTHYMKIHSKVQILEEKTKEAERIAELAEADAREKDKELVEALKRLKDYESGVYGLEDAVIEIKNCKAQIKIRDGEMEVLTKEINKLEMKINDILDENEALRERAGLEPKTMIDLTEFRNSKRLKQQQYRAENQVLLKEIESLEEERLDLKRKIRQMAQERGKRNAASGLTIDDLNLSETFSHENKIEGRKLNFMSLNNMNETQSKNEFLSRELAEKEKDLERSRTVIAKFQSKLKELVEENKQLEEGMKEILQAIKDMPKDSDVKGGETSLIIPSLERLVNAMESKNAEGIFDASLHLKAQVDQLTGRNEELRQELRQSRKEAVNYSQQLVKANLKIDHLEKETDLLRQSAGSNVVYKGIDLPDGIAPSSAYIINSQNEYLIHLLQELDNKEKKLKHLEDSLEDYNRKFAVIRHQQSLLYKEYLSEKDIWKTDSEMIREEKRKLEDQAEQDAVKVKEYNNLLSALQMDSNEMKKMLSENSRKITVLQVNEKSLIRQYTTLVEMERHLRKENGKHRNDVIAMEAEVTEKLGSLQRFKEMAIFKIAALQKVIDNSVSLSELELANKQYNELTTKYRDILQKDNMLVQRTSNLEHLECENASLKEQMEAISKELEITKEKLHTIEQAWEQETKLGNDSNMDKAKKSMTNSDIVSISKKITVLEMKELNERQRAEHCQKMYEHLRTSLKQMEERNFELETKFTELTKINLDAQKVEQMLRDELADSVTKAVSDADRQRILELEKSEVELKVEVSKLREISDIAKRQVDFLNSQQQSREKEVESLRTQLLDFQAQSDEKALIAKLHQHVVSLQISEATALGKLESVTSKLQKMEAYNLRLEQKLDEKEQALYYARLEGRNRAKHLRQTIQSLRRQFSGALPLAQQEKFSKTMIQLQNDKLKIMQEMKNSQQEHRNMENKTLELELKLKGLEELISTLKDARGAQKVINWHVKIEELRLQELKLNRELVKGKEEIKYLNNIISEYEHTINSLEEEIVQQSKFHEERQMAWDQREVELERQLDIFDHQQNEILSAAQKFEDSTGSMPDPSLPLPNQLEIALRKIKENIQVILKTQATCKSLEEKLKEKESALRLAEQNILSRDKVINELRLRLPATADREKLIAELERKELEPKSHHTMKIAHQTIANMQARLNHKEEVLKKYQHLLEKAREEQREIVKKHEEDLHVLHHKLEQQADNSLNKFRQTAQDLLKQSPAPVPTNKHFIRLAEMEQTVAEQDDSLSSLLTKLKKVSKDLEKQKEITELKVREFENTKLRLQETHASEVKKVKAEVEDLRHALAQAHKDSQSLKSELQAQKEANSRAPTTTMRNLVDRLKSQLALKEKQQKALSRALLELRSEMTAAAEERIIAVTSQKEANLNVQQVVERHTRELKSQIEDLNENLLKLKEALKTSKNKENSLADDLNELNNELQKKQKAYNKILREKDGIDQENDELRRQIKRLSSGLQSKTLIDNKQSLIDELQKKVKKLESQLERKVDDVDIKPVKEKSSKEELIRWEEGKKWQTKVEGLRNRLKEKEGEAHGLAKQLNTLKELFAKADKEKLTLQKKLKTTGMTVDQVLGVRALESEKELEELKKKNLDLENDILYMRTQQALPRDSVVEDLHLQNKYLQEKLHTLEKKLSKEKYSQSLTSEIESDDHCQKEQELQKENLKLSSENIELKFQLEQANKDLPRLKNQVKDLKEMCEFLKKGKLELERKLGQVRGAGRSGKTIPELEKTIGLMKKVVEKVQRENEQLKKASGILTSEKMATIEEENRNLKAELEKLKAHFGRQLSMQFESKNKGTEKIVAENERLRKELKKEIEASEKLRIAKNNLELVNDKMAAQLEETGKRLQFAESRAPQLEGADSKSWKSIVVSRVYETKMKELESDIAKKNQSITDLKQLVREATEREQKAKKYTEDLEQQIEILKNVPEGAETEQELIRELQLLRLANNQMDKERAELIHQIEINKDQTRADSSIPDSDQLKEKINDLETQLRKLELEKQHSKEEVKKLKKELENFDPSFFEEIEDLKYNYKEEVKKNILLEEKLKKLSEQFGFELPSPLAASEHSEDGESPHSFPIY
UniProt Q6A070: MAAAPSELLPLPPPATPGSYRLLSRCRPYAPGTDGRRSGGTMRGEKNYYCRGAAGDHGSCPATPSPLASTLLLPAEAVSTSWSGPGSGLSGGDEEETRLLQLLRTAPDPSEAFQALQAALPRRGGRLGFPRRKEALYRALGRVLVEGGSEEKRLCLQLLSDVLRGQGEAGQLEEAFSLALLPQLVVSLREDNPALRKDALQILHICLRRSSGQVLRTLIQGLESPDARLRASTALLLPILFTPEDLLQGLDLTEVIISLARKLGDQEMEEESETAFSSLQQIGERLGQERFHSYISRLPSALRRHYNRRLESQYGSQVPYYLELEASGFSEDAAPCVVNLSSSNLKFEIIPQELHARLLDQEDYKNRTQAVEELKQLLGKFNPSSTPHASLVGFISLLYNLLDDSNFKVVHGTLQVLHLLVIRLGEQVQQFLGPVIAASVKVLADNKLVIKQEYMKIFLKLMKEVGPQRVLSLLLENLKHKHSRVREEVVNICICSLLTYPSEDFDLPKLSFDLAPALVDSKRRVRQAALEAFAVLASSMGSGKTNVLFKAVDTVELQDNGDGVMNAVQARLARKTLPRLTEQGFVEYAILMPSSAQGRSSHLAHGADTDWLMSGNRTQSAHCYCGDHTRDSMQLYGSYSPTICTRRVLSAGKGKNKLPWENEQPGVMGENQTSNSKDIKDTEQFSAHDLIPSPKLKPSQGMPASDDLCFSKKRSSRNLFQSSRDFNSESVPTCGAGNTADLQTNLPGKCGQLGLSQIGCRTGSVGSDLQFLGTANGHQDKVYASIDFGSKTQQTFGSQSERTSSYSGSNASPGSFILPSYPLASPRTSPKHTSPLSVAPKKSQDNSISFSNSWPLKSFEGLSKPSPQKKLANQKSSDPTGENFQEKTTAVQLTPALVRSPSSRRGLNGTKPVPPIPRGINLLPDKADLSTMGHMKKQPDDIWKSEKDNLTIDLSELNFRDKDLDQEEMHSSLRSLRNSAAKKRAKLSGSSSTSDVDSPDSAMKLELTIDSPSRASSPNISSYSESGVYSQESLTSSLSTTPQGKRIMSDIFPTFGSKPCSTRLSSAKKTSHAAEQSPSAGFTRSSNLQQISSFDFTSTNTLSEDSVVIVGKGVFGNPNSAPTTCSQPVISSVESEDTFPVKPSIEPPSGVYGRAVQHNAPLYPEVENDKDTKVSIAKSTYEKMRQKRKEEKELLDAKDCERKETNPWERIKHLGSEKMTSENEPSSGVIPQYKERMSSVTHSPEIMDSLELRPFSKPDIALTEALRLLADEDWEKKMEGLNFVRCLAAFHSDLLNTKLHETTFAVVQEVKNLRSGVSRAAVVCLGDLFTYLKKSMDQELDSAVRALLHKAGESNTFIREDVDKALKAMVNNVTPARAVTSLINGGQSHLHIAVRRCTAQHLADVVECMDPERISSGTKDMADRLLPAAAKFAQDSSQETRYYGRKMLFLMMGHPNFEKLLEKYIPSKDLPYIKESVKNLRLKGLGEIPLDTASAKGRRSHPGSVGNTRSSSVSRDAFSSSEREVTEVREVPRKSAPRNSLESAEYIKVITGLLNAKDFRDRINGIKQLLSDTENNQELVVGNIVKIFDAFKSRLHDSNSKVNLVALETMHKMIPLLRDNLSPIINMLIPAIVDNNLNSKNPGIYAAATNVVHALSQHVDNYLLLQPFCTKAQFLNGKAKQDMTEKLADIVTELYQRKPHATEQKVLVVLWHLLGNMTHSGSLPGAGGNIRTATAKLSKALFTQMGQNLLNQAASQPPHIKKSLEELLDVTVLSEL
UniProt Q8CG73: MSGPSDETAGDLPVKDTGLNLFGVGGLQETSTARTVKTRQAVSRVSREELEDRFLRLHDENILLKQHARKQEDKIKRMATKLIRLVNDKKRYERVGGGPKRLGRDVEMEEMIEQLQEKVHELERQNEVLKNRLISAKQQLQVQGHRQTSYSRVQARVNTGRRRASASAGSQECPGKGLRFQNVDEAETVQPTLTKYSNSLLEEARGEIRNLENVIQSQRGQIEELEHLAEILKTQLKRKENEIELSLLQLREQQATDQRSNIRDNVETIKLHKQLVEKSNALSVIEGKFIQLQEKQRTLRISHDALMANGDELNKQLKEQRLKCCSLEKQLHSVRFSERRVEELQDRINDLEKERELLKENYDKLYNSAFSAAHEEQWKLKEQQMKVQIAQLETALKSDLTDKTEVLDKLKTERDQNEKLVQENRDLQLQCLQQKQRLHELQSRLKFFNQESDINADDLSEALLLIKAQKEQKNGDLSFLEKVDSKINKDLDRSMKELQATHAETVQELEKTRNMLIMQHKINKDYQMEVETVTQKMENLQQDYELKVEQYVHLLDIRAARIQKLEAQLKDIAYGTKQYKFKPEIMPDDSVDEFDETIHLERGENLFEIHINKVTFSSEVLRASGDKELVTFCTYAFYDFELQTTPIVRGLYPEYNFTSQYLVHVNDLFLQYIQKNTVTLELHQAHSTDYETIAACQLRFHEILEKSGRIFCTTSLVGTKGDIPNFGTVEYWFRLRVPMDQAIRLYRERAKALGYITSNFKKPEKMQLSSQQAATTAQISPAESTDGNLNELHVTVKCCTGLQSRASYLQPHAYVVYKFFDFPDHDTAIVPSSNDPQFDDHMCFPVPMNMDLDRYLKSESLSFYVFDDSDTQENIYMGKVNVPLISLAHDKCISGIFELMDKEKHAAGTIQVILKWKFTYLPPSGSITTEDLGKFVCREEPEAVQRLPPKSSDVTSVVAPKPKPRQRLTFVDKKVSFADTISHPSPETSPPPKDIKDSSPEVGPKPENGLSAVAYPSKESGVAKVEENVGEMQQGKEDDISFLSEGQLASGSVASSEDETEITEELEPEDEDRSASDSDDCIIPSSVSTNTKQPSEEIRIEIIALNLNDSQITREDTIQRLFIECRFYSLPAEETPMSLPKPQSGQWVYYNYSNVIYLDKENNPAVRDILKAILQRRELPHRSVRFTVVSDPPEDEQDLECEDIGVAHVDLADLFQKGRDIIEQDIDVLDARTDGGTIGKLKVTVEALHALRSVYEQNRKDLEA

Target: T1, FLAG-miniTurbo-CCDC66 (UniProt A2RUB6)
T1 sequence: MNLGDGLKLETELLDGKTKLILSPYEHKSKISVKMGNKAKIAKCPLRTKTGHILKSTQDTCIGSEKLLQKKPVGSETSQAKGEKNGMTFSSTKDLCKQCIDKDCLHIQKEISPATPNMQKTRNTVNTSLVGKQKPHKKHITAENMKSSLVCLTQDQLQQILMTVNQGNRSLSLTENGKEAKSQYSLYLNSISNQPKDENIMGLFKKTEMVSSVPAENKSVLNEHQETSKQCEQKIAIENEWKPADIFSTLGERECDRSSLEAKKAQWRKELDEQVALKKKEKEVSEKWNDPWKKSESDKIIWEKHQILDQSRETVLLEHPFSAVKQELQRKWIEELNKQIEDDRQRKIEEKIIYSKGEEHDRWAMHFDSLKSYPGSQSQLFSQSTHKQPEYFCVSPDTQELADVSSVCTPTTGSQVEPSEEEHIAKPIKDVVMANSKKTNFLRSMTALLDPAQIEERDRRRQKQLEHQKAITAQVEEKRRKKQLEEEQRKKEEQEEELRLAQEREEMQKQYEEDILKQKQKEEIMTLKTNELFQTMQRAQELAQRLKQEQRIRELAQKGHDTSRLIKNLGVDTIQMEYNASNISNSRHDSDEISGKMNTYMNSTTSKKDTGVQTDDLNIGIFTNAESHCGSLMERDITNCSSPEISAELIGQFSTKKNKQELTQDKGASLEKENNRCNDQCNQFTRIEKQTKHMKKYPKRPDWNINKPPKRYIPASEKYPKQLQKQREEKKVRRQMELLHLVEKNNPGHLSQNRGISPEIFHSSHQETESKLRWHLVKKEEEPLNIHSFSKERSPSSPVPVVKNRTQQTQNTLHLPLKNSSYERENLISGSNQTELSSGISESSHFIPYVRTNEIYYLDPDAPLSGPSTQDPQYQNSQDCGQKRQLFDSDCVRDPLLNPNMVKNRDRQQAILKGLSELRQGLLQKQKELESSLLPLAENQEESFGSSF
Test: proximity labelling

Molecule: CEP290 (IMCD3 cells) (from UniProt Q6A078 1-2472)
binding: no binding

Molecule: TOGARAM1 (IMCD3 cells) (from UniProt Q6A070 1-1776)
binding: binds

Molecule: RPGRIP1L (IMCD3 cells) (from UniProt Q8CG73 1-1264)
binding: binds

B1: LCA5 (IMCD3 cells) (protein, UniProt Q80ST9 1-704)
chain: MGERARSPDIEQGKKGGKHPYSHYSSDLGSSPQSSGPSSPVNTTPCASTREKNPKRHLSDNQVHHPTVRKVSPKAVPSKKGIRVGFRSQSLNREPLRKDPDIVTKRVLSARLLKINELQNEVSELQVKLAQLLKENKALKSLQYRQEKALNKFEDAENEISQLIHRHNNEITALKERLRKSQEKERATEKRVKETEGELFRTKFSLQKLKKISEARHLPERDDLAKKLVSAELKLDDTERKIKELSKNLELSTNSFQRQLLAERKRAFEAYDENKVLQKELQRLHHKLKEKEKELDIKNIYANRLPKSSPKKEKEIERKHVSCQSDFTDQCTKGVQTAEDFELEDFPFTAQTVLCYENRWDEPEYLSSYLEYQDLNKHGSEMLSSVLGQEGKYDEDEDPCSAKQEARKPESEWAREELDKVKGKSALLGRAEKLALEAGRFPTENYQAQSVDKFEDEAERLKTEMLLAKLNEINKELQDPQNLGRAPLPLLPNFESKLHSPDRSTRPYSFPESLDRSFNGQHLQDLSFLTPRGEGGSPGPIRSPGQIRSPAPLDEFSFGSYVPSFGKTLGKSNPPSQKSSLLDFQSNSSESPSKDSLDLMSRKEKKATLMEQLFGPSASNTSVSSKSTDPHFPAASRGDMDPLHFLSGDRNSRVREPGDEEEDLFLREGRSFNPNRHRLKHASNKPTVTAVDSVDEDIEEVTLR
binding: binds

B2: ARMC9 (IMCD3 cells) (protein, UniProt Q9D2I5 1-817)
chain: MGDILAHESELLGLVKEYLDFAEFEDTLKTFSKECKVKGKPLCKNVGGPLKKDSKSLVIQRDLVAAFDSGDQKAFFDLWEGHIPSSVRDTDSLAQKLEFYLHIHFAIYLLKYCRGRPDKQELDKRISYFKTYLETKGAALSQTTEFLPFYALPFVPNPMVHPSFKELFQDSWTPELKLKLEKFLALTFKANNTPKLLTIYKENGPNSKELLQQLHQQLVEAERRAMTYLKRYNKIQADYHNLIGVTAELVDSLEATVSGKMITPEYLQSVCVRLFSNQMRQSLAHSVDFTRPGTASTMLRASLAPEKLKDVPLLPSLDYEKLKKDLIWGSDRLKAFLLQALRWRLTTSHPGEQRETVLQAYISNDLLDCHSHNQRSVLQLLHSKSEAVRQYMARLINALASLAEGRLYLAQNTKVLRMLEGRLKEEDKDVITRENVLGALQKFSLRRPLQTAMIRDGLIFWLIDLLKDPDCLSDYTLEYSVALLMNLCLRSAGKNMCAKVAGLMLKVLSDLLGHENHEIQPYVNGALYSILSIPSIREEARAMGMEDILRCFIKEGNAEMIRQIEFIIKQLNSEDLLDGVLESDDDEDEDDEEDHDIMEADLDKDELIQPQLGELSGEKLLTTEYLGIMTNTGKARRKGPASVQWSGDEPLRRPVTPGGHRTGCPVLGDHLISPQNAQQARNGCLRAMPVAHPDDYKEGKPGVTGCGTSSSFMDHKPREWSPAGHQKSRLVPTAALGWPREMTQDPSSGHITREFVPAFTCKPQVPSTPETVEQNPLKAKALSLAPQFSSSGPQQASRPASTASSTRGLHSSQSIRK
binding: binds

Results, then the molecule that gave them:

binding: binds
B3: CSPP1 (IMCD3 cells) (protein, UniProt B2RX88 1-1205)
chain: MADSLDEFIEEQKAKLAKDKAELESDPPYMEMKGKASEKLSENSKILISMAKENIPPSSQQQPKGPLGIEYGLSLPLGEDYEQKKHKLKEELRQDYRRYLTQGITQAKRKKNFLSTGETDPSTLGVSLPIDERLSAKERLKLERNREYNQFLRGKAESTEKVRQVEKNIEPKSQRNKNPISQGKSDLPLQIQTAYTHSEGPWLSRQEEGLYRQLDGEIELRSRRPLKQTKEEVGISGAEHPSLSGSAGVPERRARRANGERVLDRQHCRADRDPGVSEDMDERFRFESDFDRRLLRVYTNGRPHGSRRGYVDGDDVPEEPNTQISAAENKSVHCNGPPRSADLDITSPFAGMLFGGEDRELTKRRKEKYRQELLEQIAEQQKKKRREKDLAFGITTSGVQDPEKSPDRLKQFSLTPRHFEEMPPERPRVAFQTPPPPFSAPSSPSVPPVHSAPSHNEDLHSGLGSTLGELAHPRVLPVPLNPPPPPLLAPPASNYRTPYDDAYYFYGARNTLDPNIVYYGSGMIGGQPAPHVSAPVTHQVAPPAVNTVGQNEQKVLSDGLRNSGLVFEDKPKPSTQSLQSYQEALQEQIREREARRKKERLEKEEYEAKLEAEMRIYNPWGKGGGGAPLRDAKGNLITDLNRMHRQNIDAYHNPDARTYEDKRAVVSIDQNLATSNAENLEDSANKNSGPLQTQSSPFARGNTFGEPLSELQIKQQELYKNFLRFQIEEKRQREEAEREKLRVAEEKEEKRLAEQRARIQQEYEEEQERRREKEEEQRLKNEELIRLAEERRKEAERKKKEEEEKHNLQLQHYYERENIIGDETKHLRQPSPVVPALQNKIASKLQRPPSVDTIISSFIHESSMSRAQSPPVPARKNQLRAEEEKKNVIMELSEMRKQLRSEERRLQGRLLHLDSDDEIPMRKRERNPMDIFDMARHRVQAPVRRPSPKGLDATTFQNIHDFNELRERDSDTRVDLRLMYPDPPRDHHTLEIQQQALLREQQKRLNRIKMRRDAGADLDTICTDNAQGRRMPRDDTNDFLKNSLLESDSAFIGAYGETYPVIEDNAFPPPSQLPSARERRRNKLKGLDFDSSRLHTPQDGLSLKSISSVNVDQVRMRNEDRMRRLTEQQKKPTNTDDEGSLVDPDDIMRHLSDDGRNSAATEPWLRPGTSESLKRFMAEHLNEEQHKGPGKPGTFTWQGLSAAHA

binding: binds
B4: CEP104 (IMCD3 cells) (protein, UniProt Q80V31 1-926)
chain: MPHKIGFVVVSSSGHEDGFSARELMIHAPTVSGWRSPKFCQFPQEIVLQMVERCRVRKLQLLAHQYMISSKVEFYISESLPEYLVPYQAERFRRLGYVSLCDNEKTGCKARELKSVYVDAVGQFLKLIFHQNHANKYNIYNQVALVAINIIGDPADLGDESNITSREKLIDHYLGHSPHNPEDPALDGTFSGRSDYISPLDDLAFDMYQDPEVAQIIRRLDERKREAVKKERYDHAKKLKQAIADLQKVGERLGRYEVEKRCAVEKEDYDLAKEKKQQMARYRAQVYEQLELHGLLQGEPEMQRPFALPLQPLASPSSPQHWKAVSSLPRTEKLVAEDSFAGPVLQEKPSASSPQHSAVDPSPPAAGHAPRSHTEVLPYDERPLPVTRKQLGEASAEAEVKEADSDVRRRGVAGEPEPLTEKALREASAAIDTLGEALVAGAYSKMWSCREDALLALYKKLMEMPVGTQKEDLKNMLRASVFLIRRAIKDIVASVFQASLKLLKMIITQYIPKHKLGKLDTTHCVERAFPLLLARAGDSSARLRVMALNFIQEMALFKEVKSLQLIPSYLVQPLKANASVHLAMSQVDLLARLLRDLGTESSGFTVDNVMKFAVSALEHRVYEVRETAVRIILDMYRQHPALTLEHLPPDDSATRRNLLYKAIFEGFAKIDGSVLPTEAEVRAQKRVATKEAEKQKKEEMKALQGQSGELRETQAGVQEKESEAVKLRNQDPQGRKAVLPDTPEIPANHFLDNLCIFCGERNESFTEEGLDLHYWKHCLMLTRCDHCRQVVEISSLTEHLLTECDRRDGFGKCPRCSEAIPKEELPGHIKTKECSPAKPEKVANHCPLCHENFAPGEEAWKVHLMGPAGCTMNLRKTHVLYKATAPQQGKGPAAAKSSTSAPKVGSKIPTPKGGLSKSSSRTYMRR

binding: binds
B5: Tubulin Tyrosine Ligase Like 5 (IMCD3 cells) (protein, UniProt Q8CHB8 1-1328)
chain: MPVVMARDLEETASSSEDEDLANQEDHPCIMWTGGCRRIPVLVFHAEAILTKDNNIRVIGERYHLSYKIVRTDSRLVRSILTAHGFHEVHPSSTDYNLMWTGSHLKPFLLRTLSEAQKVNHFPRSYELTRKDRLYKNIIRMQHTHGFKAFHILPQTFLLPAEYAEFCNSYSKDRGPWIVKPVASSRGRGVYLINNPNQISLEENILVSRYINNPLLIDDFKFDVRLYVLVTSYDPLVIYLYEEGLARFATVRYDQGSKNIRNQFMHLTNYSVNKKSGDYVSCDDPEVEDYGNKWSMSAMLRYLKQEGKDTTALMAHVEDLIIKTIISAELAIATACKTFVPHRSSCFELYGFDVLIDNTLKPWLLEVNLSPSLACDAPLDLKIKASMISDMFTVVGFVCQDPAQRTSNRSIYPSFESSRRNPFQKPQRTRPLSASDAEMKNLVASAREKVPGKLGGSVLGLSMEEIKVLRRVKEENDRRGGFIRIFPTSETWEIYGSYLEHKTSMNYMLATRLFQDRGNPRRSLLTGRARVSTEGAPELKVESMNSKAKLHAALYERKLLSLEVRKRRRRSGRLRAMRPKYPVIAQPAEMNIKTETESEEEEEVGLDNDDEEQEASQEESAGSLGENQAKYTPSLTVIVENSPRDNAMKVAEWTNKGEPCCKIEAQEPESKFNLMQILQDNGNLSKVQARLAFSAYLQHVQIRLTKDSGGQTLSPSWAAKEDEQMELVVRFLKRASSNLQHSLRMVLPSRRLALLERRRILAHQLGDFIGVYNKETEQMAEKKSKKKLEEEEEDGVNAESFQEFIRQASEAELEEVLTFYTQKNKSASVFLGTHSKSSKNSSSYSDSGAKGDHPETIQEVKIKQPKQQQATEIHADKLSRFTTSSGKEAKLVYTNCSSFCSPAAVLLQRLPSSHLSSVITTSALSAGPGHHASLSQIPPAVPSLPHQPALLLSPVPDNAPPSIHSGTQNVSPAGLPRCRSGSYTIGPFSSFQSAAHIYSQKLSRPSSAKAAGSCHPHKHHSGIAKTQKEGEDVSLNRRYNQSLVTAELQRLAEKQAARQYSPASHISLLTQQVTNLNLASSVINRSSASTPPTLRPVISPSGPTWSIQPDLHASETHSSPPGSRSLQTGGFAWEGEVENNAYSKTTGVVPQHKYHPTAGSYQLHFALQQLEQQKLQSRQLLDQSRARHQAIFGSQTLPNSSLWTMNNGPGCRISSATTGGQKPNTLPQKVVAPPNSSTLVSKPASNHKQVLRKPASQRASKGSSAEGQLNGLQSSLNPAAFMPITNSTGSLEAPQVIFARSKPLPTQSGALATVIGQRKSKSVKSGTI
